Experimental data: PubChem BioAssay AID1259405 (NCATS, 2018)
Assay: 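Silenced genes that increase secreted GFP made by CHO cells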 (primary screen). System: Chinese hamster CHO-K1 ovary cells with stable secreted eGFP expression. Knock-down reagent: single siRNA against mouse genes, 0.8 pmol siRNA per well (2 µl of 400 nM stock). Duration: 3 days. Measurement: 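Per-well intracellular GFP measured by laser scanning cytometry, plus viability from ATP luminescence, each relative to plate median of non-targeting control wells, in %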. Direction: GFP, % of control: higher = more GFP per well, higher productivity; viability (ATP), % of control: higher = more viable cells (more ATP). Call rule: 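a knock-down is called active if GFP reaches 120% or more of non-targeting control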.
The whole screen tested about 50,000 reagents; shown is an unselected part. Of all reagents, about 4,000 (8%) got an active call. 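Mouse siRNA library applied to hamster cells; one well for each siRNA.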 The numbers tell different reagents against one gene apart.

no.	gene	reagent no.	GFP, % of control	viability (ATP), % of control	Call
1	Emc4 (ER membrane protein complex subunit 4)	1	113	86.2	inactive
2	Emc4 (ER membrane protein complex subunit 4)	2	132	92.1	active
3	Emc4 (ER membrane protein complex subunit 4)	3	78.5	78.3	inactive
4	Entpd5 (ectonucleoside triphosphate diphosphohydrolase 5)	1	107	97.9	inactive
5	Entpd5 (ectonucleoside triphosphate diphosphohydrolase 5)	2	53.6	54.9	inactive
6	Entpd5 (ectonucleoside triphosphate diphosphohydrolase 5)	3	108	83.8	inactive
7	Wfdc15a (WAP four-disulfide core domain 15A)	1	62.4	55.3	inactive
8	Wfdc15a (WAP four-disulfide core domain 15A)	2	98.6	50.7	inactive
9	Wfdc15a (WAP four-disulfide core domain 15A)	3	94.7	102	inactive
10	Ass1 (argininosuccinate synthetase 1)	1	79.2	67.6	inactive
11	Ass1 (argininosuccinate synthetase 1)	2	41.6	47	inactive
12	Ass1 (argininosuccinate synthetase 1)	3	49.8	57.7	inactive
13	Ctdspl (CTD small phosphatase like)	1	28.7	25.7	inactive
14	Ctdspl (CTD small phosphatase like)	2	59.3	79.5	inactive
15	Ctdspl (CTD small phosphatase like)	3	81.8	80.5	inactive
16	Tead3 (TEA domain family member 3)	1	51.6	55.5	inactive
17	Tead3 (TEA domain family member 3)	2	79.8	80.6	inactive
18	Tead3 (TEA domain family member 3)	3	92.1	76.5	inactive
19	Dlx1 (distal-less homeobox 1)	1	26.7	57.9	inactive
20	Dlx1 (distal-less homeobox 1)	2	47.3	38.9	inactive
21	Dlx1 (distal-less homeobox 1)	3	84.8	68.1	inactive
22	Rac3 (Rac family small GTPase 3)	1	64.2	45.9	inactive
23	Rac3 (Rac family small GTPase 3)	2	115	124	inactive
24	Rac3 (Rac family small GTPase 3)	3	42	90.1	inactive

Active calls (from the list above):
gene	reagent no.	GFP, % of control	viability (ATP), % of control	Call
Emc4 (ER membrane protein complex subunit 4)	2	132	92.1	active

Next reagents:
no.	gene	reagent no.	GFP, % of control	viability (ATP), % of control	Call
25	Gdpgp1 (GDP-D-glucose phosphorylase 1)	1	71.3	71.1	inactive
26	Gdpgp1 (GDP-D-glucose phosphorylase 1)	2	102	85.4	inactive
27	Gdpgp1 (GDP-D-glucose phosphorylase 1)	3	92.6	36.2	inactive
28	Or52ae9 (olfactory receptor family 52 subfamily AE member 9)	1	106	40.1	inactive
29	Or52ae9 (olfactory receptor family 52 subfamily AE member 9)	2	70.2	72.3	inactive
30	Or52ae9 (olfactory receptor family 52 subfamily AE member 9)	3	50.3	79.6	inactive
31	Itgbl1 (integrin, beta-like 1)	1	40.2	51.2	inactive
32	Itgbl1 (integrin, beta-like 1)	2	104	87.6	inactive
33	Itgbl1 (integrin, beta-like 1)	3	75.3	92.8	inactive
34	Rad51d (RAD51 paralog D)	1	100	129	inactive
35	Rad51d (RAD51 paralog D)	2	92	72.7	inactive
36	Atosb (atos homolog B)	1	119	45.7	inactive
37	Atosb (atos homolog B)	2	78.1	61.3	inactive
38	Atosb (atos homolog B)	3	59.1	58.2	inactive
39	Pde6d (phosphodiesterase 6D, cGMP-specific, rod, delta)	1	81.4	70.2	inactive
40	Pde6d (phosphodiesterase 6D, cGMP-specific, rod, delta)	2	88.7	76.6	inactive
41	Pde6d (phosphodiesterase 6D, cGMP-specific, rod, delta)	3	90	79.3	inactive
42	Nid1 (nidogen 1)	1	84.3	109	inactive
43	Nid1 (nidogen 1)	2	86.1	75.8	inactive
44	Stap1 (signal transducing adaptor family member 1)	1	84.5	60.3	inactive
45	Stap1 (signal transducing adaptor family member 1)	2	88.7	103	inactive
46	Stap1 (signal transducing adaptor family member 1)	3	46.8	67.5	inactive
47	Rbmx (RNA binding motif protein, X chromosome)	1	78	93.3	inactive
48	Rbmx (RNA binding motif protein, X chromosome)	2	66.3	93.9	inactive
49	Tbc1d20 (TBC1 domain family, member 20)	1	122	72.2	active
50	Tbc1d20 (TBC1 domain family, member 20)	2	74.5	42	inactive
51	Tbc1d20 (TBC1 domain family, member 20)	3	81.6	83.2	inactive
52	Get4 (golgi to ER traffic protein 4)	1	117	94.9	inactive
53	Get4 (golgi to ER traffic protein 4)	2	118	112	inactive
54	Get4 (golgi to ER traffic protein 4)	3	109	78.6	inactive
55	Emsy (EMSY, BRCA2-interacting transcriptional repressor)	1	97.5	105	inactive
56	Emsy (EMSY, BRCA2-interacting transcriptional repressor)	2	88.7	67	inactive
57	Emsy (EMSY, BRCA2-interacting transcriptional repressor)	3	105	105	inactive
